Some entries share one result that the patent states for a list of compounds.
Test system: cucumber anthracnose (Colletotrichum orbiculare)
Test: Protective effect against cucumber anthracnose on potted plants
Type: in vivo
Settings: 400 ppm, leaf spray, inoculated the second day after treatment

CCC(CC)Oc1cccc(NC(=O)c2cn(C)nc2C(F)F)c1C [Compound 11]
protective effect against cucumber anthracnose: ≥ 80%
